Measurements from publication PMC4667280, “Crystal structure of FadD32, an enzyme essential for mycolic acid biosynthesis in mycobacteria” (Scientific Reports, 2015).
These are yes or no findings as the source states them, for the method shown. A result given as binding can be weak or reduced; the word gives no strength. Sequences can lack the tags named with a protein.

Biological target: M. smegmatis PKS13 residues 1-1042 (MsPKS13ΔC) (M. smegmatis)
Assay: SEC; Superdex 200, 20 mM Tris pH 8.0, 150 mM NaCl, 0.4 ml/min; MsFadD32 pre-incubated with MsPKS13ΔC, and each protein alone, injected; peak fractions analysed by SDS-PAGE; both purified

binding: binds
B1: full-length Mycobacterium smegmatis FadD32 (fatty acid degradation protein D32) (enzyme, UniProt A0R618 1-630)
chain: MPFHNPFIKDGQIKFPDGSSIVAHVERWAKVRGDKLAYRFLDFSTERDGVPRDLTWAQFSARNRAVAARLQQVTQPGDRVAILCPQNLDYLVAFFGALYAGRIAVPLFDPSEPGHVGRLHAVLDNCHPSAILTTTEAAEGVRKFFRTRPANQRPRVIAVDAVPDDVASTWVNPDEPDETTIAYLQYTSGSTRIPTGVQITHLNLATNVVQVIEALEGEEGDRGLSWLPFFHDMGLITALLAPMIGHYFTFMTPAAFVRRPERWIRELARKEGDTGGTISVAPNFAFDHAAARGVPKPGSPPLDLSNVKAVLNGSEPISAATVRRFNEAFGPFGFPPKAIKPSYGLAEATLFVSTTPSAEEPKIITVDRDQLNSGRIVEVDADSPKAVAQASAGKVGIAEWAVIVDAESATELPDGQVGEIWISGQNMGTGYWGKPEESVATFQNILKSRTNPSHAEGATDDATWVRTGDYGAFYDGDLYITGRVKDLVIIDGRNHYPQDLEYSAQEASKAIRTGYVAAFSVPANQLPDEVFENAHSGIKRDPDDTSEQLVIVAERAPGAHKLDIGPITDDIRAAIAVRHGVTVRDVLLTAAGAIPRTSSGKIGRRACRAAYLDGSLRAGKVANDFPDATD
